Reference: doi:10.1101/2020.02.26.965178
These are yes or no findings as the source states them, for the method shown. For some assays here: Binding seen in cells or lysates may run through a third protein. Some binding calls cover weakened binding; strength is not graded here.

Amino acid sequences for entries named in this document (tags omitted).
UniProt Q8BMJ8: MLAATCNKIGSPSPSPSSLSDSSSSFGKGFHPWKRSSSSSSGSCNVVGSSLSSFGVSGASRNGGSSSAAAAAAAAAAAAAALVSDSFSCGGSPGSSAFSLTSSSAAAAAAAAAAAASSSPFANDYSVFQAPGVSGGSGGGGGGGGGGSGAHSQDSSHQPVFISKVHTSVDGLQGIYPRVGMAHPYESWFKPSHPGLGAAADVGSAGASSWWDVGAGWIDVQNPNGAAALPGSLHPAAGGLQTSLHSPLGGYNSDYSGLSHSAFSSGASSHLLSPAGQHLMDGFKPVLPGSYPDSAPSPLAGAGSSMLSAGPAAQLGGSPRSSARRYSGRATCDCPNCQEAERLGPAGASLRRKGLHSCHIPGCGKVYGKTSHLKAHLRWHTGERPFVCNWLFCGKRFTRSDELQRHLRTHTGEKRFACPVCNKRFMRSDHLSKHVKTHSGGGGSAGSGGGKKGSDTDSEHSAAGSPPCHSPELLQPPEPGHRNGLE
UniProt P70396: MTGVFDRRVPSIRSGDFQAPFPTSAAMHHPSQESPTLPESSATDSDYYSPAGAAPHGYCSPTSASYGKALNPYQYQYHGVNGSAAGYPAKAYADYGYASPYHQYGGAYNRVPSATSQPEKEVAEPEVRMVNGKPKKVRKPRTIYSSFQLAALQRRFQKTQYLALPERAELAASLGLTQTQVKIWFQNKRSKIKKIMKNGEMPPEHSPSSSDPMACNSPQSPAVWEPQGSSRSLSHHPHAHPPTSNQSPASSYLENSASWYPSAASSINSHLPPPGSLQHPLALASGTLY
UniProt Q9ESX2: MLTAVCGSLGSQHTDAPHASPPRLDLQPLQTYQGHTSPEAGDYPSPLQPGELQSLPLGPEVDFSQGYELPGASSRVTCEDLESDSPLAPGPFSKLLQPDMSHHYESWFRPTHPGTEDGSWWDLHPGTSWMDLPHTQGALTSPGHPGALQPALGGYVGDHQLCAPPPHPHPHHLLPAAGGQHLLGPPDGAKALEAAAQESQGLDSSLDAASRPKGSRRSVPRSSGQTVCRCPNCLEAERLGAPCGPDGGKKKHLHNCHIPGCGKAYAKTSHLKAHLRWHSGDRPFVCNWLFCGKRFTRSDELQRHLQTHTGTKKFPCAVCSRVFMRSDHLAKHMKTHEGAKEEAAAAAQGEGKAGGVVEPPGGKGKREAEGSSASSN

Key:
[1] = biological target: Sp8 fused at its C-terminus to a YFP moiety (Sp8-YN, Sp8-YC) (UniProt Q8BMJ8); test: split reporter
Myc-Dlx5 [2] = biological target: Myc-Dlx5 (UniProt P70396); test: native gel or EMSA
Myc-Dlx5 [3] = biological target: Myc-Dlx5 (UniProt P70396); test: co-IP
FLAG-Sp8 = FLAG-Sp8 (UniProt Q8BMJ8); test: co-IP
[4] = biological target: Sp6 fused at its C-terminus to a YFP moiety (Myc-Sp6-YN, Myc-Sp6-YC) (UniProt Q9ESX2); test: split reporter

Substance | binding [1] | binding (Myc-Dlx5 [2]) | binding (Myc-Dlx5 [3]) | also measured
Sp8 fused at its C-terminus to a YFP moiety (Sp8-YN, Sp8-YC) (from UniProt Q8BMJ8 1-486) | binds |  |  | 
FLAG-Sp8 (from UniProt Q8BMJ8 1-486) |  | binds | binds | 
Sp6 as used in the co-immunoprecipitation with Sp8 (construct not told) (from UniProt Q9ESX2 1-376) |  |  |  | binding (FLAG-Sp8): binds
FLAG-Sp6 (from UniProt Q9ESX2 1-376) |  | binds | binds | 
Sp6 fused at its C-terminus to a YFP moiety (Myc-Sp6-YN, Myc-Sp6-YC) (from UniProt Q9ESX2 1-376) | binds |  |  | binding [4]: binds
